In article PMC10079535 one finds binding data, which are given here for two substances.

Sequences of proteins named here, by UniProt entry; tags and fusion partners are left off.
UniProt P49841: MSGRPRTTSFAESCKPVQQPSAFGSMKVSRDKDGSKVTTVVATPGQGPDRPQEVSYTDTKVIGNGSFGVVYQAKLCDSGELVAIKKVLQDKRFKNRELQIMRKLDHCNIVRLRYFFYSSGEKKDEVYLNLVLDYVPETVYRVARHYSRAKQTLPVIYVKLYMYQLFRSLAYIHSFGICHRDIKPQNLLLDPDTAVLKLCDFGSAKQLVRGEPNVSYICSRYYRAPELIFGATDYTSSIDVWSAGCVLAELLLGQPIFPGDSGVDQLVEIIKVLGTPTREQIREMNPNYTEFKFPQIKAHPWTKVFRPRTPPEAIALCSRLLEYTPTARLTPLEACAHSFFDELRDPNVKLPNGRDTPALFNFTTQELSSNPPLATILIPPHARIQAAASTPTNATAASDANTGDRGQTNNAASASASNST
UniProt Q96SB4: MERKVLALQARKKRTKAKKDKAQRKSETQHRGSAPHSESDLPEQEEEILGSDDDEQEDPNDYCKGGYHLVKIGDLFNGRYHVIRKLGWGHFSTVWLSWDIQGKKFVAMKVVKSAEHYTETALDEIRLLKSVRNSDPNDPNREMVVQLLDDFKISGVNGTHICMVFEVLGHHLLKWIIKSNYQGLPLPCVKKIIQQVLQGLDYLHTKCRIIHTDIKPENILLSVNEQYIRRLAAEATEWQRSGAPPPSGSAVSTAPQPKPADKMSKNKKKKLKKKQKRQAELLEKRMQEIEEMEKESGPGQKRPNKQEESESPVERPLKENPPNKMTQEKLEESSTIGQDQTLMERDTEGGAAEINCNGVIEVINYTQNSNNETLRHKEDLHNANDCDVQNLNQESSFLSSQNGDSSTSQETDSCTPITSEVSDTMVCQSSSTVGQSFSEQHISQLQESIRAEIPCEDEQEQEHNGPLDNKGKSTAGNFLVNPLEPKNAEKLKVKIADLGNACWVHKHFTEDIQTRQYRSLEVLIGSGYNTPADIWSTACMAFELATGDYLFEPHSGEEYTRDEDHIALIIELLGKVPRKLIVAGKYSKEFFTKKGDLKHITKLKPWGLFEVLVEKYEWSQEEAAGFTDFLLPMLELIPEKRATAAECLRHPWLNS

For one assay, the target named is Flag-GSK3β (human) (UniProt P49841). Kind of assay: co-IP; 293T cells transfected with HA-Vector, HA-SRPK1, Flag-Vector or Flag-GSK3β; IP lysis buffer 25 mM HEPES pH 7.4, 150 mM NaCl, 1% NP-40, 1 mM EDTA.
The target of assay [1] is Glycogen synthase kinase-3 (GSK3β), endogenous (human (endogenous in NCI-H1975)) (UniProt P49841). Kind of assay: co-IP; endogenous proteins of NCI-H1975 lysate; anti-SRPK1 or anti-GSK3β antibody cross-linked to protein A/G-agarose, overnight at 4 °C; IP lysis buffer 25 mM HEPES pH 7.4, 150 mM NaCl, 1% NP-40, 1 mM EDTA; also with cells treated with SPHINX31 (interaction not reduced).

No constants are given. Whether binding was seen depends on the method and setting. Binding seen in cells or lysates may run through a third protein. Some results given as binding are weak or reduced against the parent protein; the word gives no strength.

Turning to HA-SRPK1 (from UniProt Q96SB4 1-655), the binding entry with Flag-GSK3β (human) was “binds”. “Serine-arginine protein kinase 1 (SRPK1), endogenous (from UniProt Q96SB4 1-655)”: the binding result in assay [1] is listed as “binds”.
